Assay results published in the supplement of paper PMC11546906.
Structures can show the parent of a compound that is named as a salt. The list shows a part of the results. This data set is noisy: repeats of one test often differ as much as different tests do.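 A screen tested FDA-approved drugs combined with one-eighth-MIC colistin against a clinical mcr-1-positive, multidrug-resistant E. coli isolate, measuring OD600 at 24 h. Controls were untreated bacteria (growth) and broth alone (blank). An OD600 under 0.2 marked a combination as active.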

What follows are compounds tested on Escherichia coli 42 (mcr-1-positive clinical isolate) (assay: OD600 after 24 h growth with compound plus colistin (absorbance units (OD600)); higher = more bacterial growth (less inhibition)). Conditions: first compound 25 µM; colistin concentration 0.5 ug/mL; incubation time 24 h; 37 °C.
CCN(C)C(=O)Oc1cccc([C@H](C)N(C)C)c1 [Rivastigmine] + CCC(C)CCCC(=O)N[C@@H](CCN)C(=O)N[C@H](C(=O)N[C@@H](CCN)C(=O)N[C@H]1CCNC(=O)[C@H]([C@@H](C)O)NC(=O)[C@H](CCN)NC(=O)[C@H](CCN)NC(=O)[C@H](CC(C)C)NC(=O)[C@@H](CC(C)C)NC(=O)[C@H](CCN)NC1=O)[C@@H](C)O [colistin] was tested, and the OD600 was inactive: 0.9.
O=P1(NCCCl)OCCCN1CCCl (stereo unspecified) [Ifosfamide] + CCC(C)CCCC(=O)N[C@@H](CCN)C(=O)N[C@H](C(=O)N[C@@H](CCN)C(=O)N[C@H]1CCNC(=O)[C@H]([C@@H](C)O)NC(=O)[C@H](CCN)NC(=O)[C@H](CCN)NC(=O)[C@H](CC(C)C)NC(=O)[C@@H](CC(C)C)NC(=O)[C@H](CCN)NC1=O)[C@@H](C)O [colistin] was tested, and the OD600 was inactive: 1.02.
O=C(O[C@H]1C[C@H]2CC[C@@H](C1)[N+]21CCCC1)C(O)(c1ccccc1)c1ccccc1 [Trospium chloride] + CCC(C)CCCC(=O)N[C@@H](CCN)C(=O)N[C@H](C(=O)N[C@@H](CCN)C(=O)N[C@H]1CCNC(=O)[C@H]([C@@H](C)O)NC(=O)[C@H](CCN)NC(=O)[C@H](CCN)NC(=O)[C@H](CC(C)C)NC(=O)[C@@H](CC(C)C)NC(=O)[C@H](CCN)NC1=O)[C@@H](C)O [colistin] was tested, and the OD600 was inactive: 0.853.
With CC(C)OC(=O)[C@H](C)N[P@](=O)(CO[C@H](C)Cn1cnc2c(N)ncnc21)Oc1ccccc1 [Tenofovir alafenamide] + CCC(C)CCCC(=O)N[C@@H](CCN)C(=O)N[C@H](C(=O)N[C@@H](CCN)C(=O)N[C@H]1CCNC(=O)[C@H]([C@@H](C)O)NC(=O)[C@H](CCN)NC(=O)[C@H](CCN)NC(=O)[C@H](CC(C)C)NC(=O)[C@@H](CC(C)C)NC(=O)[C@H](CCN)NC1=O)[C@@H](C)O [colistin] the OD600 was inactive: 0.986.
With COc1cc2c(c(OC)c1OC)-c1ccc(OC)c(=O)cc1[C@@H](NC(C)=O)CC2 [Colchicine] + CCC(C)CCCC(=O)N[C@@H](CCN)C(=O)N[C@H](C(=O)N[C@@H](CCN)C(=O)N[C@H]1CCNC(=O)[C@H]([C@@H](C)O)NC(=O)[C@H](CCN)NC(=O)[C@H](CCN)NC(=O)[C@H](CC(C)C)NC(=O)[C@@H](CC(C)C)NC(=O)[C@H](CCN)NC1=O)[C@@H](C)O [colistin] the OD600 was inactive: 1.08.
In the case of C=CN1CCCC1=O.II [Povidone iodine] + CCC(C)CCCC(=O)N[C@@H](CCN)C(=O)N[C@H](C(=O)N[C@@H](CCN)C(=O)N[C@H]1CCNC(=O)[C@H]([C@@H](C)O)NC(=O)[C@H](CCN)NC(=O)[C@H](CCN)NC(=O)[C@H](CC(C)C)NC(=O)[C@@H](CC(C)C)NC(=O)[C@H](CCN)NC1=O)[C@@H](C)O [colistin], the OD600 is reported as inactive: 0.999.
For C[N+]12CCC(CC1)C(OC(=O)C(O)(c1ccccc1)c1ccccc1)C2 (stereo unspecified) [Clidinium bromide] + CCC(C)CCCC(=O)N[C@@H](CCN)C(=O)N[C@H](C(=O)N[C@@H](CCN)C(=O)N[C@H]1CCNC(=O)[C@H]([C@@H](C)O)NC(=O)[C@H](CCN)NC(=O)[C@H](CCN)NC(=O)[C@H](CC(C)C)NC(=O)[C@@H](CC(C)C)NC(=O)[C@H](CCN)NC1=O)[C@@H](C)O [colistin], the OD600 was inactive: 1.19.
With COc1cc2c(cc1OC)C1CC(=O)C(CC(C)C)CN1CC2 (stereo unspecified) [Tetrabenazine] + CCC(C)CCCC(=O)N[C@@H](CCN)C(=O)N[C@H](C(=O)N[C@@H](CCN)C(=O)N[C@H]1CCNC(=O)[C@H]([C@@H](C)O)NC(=O)[C@H](CCN)NC(=O)[C@H](CCN)NC(=O)[C@H](CC(C)C)NC(=O)[C@@H](CC(C)C)NC(=O)[C@H](CCN)NC1=O)[C@@H](C)O [colistin] the OD600 was inactive: 1.15.
With CC1(C)C(C=C(Cl)Cl)C1C(=O)OCc1cccc(Oc2ccccc2)c1 (stereo unspecified) [Permethrin] + CCC(C)CCCC(=O)N[C@@H](CCN)C(=O)N[C@H](C(=O)N[C@@H](CCN)C(=O)N[C@H]1CCNC(=O)[C@H]([C@@H](C)O)NC(=O)[C@H](CCN)NC(=O)[C@H](CCN)NC(=O)[C@H](CC(C)C)NC(=O)[C@@H](CC(C)C)NC(=O)[C@H](CCN)NC1=O)[C@@H](C)O [colistin] the OD600 was inactive: 1.1.
For COc1ccc(C(CN(C)C)C2(O)CCCCC2)cc1 (stereo unspecified) [Venlafaxine hydrochloride] + CCC(C)CCCC(=O)N[C@@H](CCN)C(=O)N[C@H](C(=O)N[C@@H](CCN)C(=O)N[C@H]1CCNC(=O)[C@H]([C@@H](C)O)NC(=O)[C@H](CCN)NC(=O)[C@H](CCN)NC(=O)[C@H](CC(C)C)NC(=O)[C@@H](CC(C)C)NC(=O)[C@H](CCN)NC1=O)[C@@H](C)O [colistin], the OD600 was inactive: 0.882.
With CN(C)[C@@H]1C(=O)C(C(N)=O)=C(O)[C@@]2(O)C(=O)C3=C(O)c4c(O)cccc4[C@@](C)(O)[C@H]3[C@H](O)[C@@H]12 [Oxytetracycline] + CCC(C)CCCC(=O)N[C@@H](CCN)C(=O)N[C@H](C(=O)N[C@@H](CCN)C(=O)N[C@H]1CCNC(=O)[C@H]([C@@H](C)O)NC(=O)[C@H](CCN)NC(=O)[C@H](CCN)NC(=O)[C@H](CC(C)C)NC(=O)[C@@H](CC(C)C)NC(=O)[C@H](CCN)NC1=O)[C@@H](C)O [colistin] the OD600 was inactive: 1.24.
CCCN1C[C@H](CSC)C[C@@H]2c3cccc4[nH]cc(c34)C[C@H]21 [Pergolide mesylate] + CCC(C)CCCC(=O)N[C@@H](CCN)C(=O)N[C@H](C(=O)N[C@@H](CCN)C(=O)N[C@H]1CCNC(=O)[C@H]([C@@H](C)O)NC(=O)[C@H](CCN)NC(=O)[C@H](CCN)NC(=O)[C@H](CC(C)C)NC(=O)[C@@H](CC(C)C)NC(=O)[C@H](CCN)NC1=O)[C@@H](C)O [colistin] was tested, and the OD600 was inactive: 1.06.
For COc1ccc(OC)c(C(O)C(C)N)c1 (stereo unspecified) [Methoxamine hydrochloride] + CCC(C)CCCC(=O)N[C@@H](CCN)C(=O)N[C@H](C(=O)N[C@@H](CCN)C(=O)N[C@H]1CCNC(=O)[C@H]([C@@H](C)O)NC(=O)[C@H](CCN)NC(=O)[C@H](CCN)NC(=O)[C@H](CC(C)C)NC(=O)[C@@H](CC(C)C)NC(=O)[C@H](CCN)NC1=O)[C@@H](C)O [colistin], the OD600 was inactive: 1.13.
In the case of CCN(C)C(=O)Oc1cccc([C@H](C)N(C)C)c1 [Rivastigmine tartrate] + CCC(C)CCCC(=O)N[C@@H](CCN)C(=O)N[C@H](C(=O)N[C@@H](CCN)C(=O)N[C@H]1CCNC(=O)[C@H]([C@@H](C)O)NC(=O)[C@H](CCN)NC(=O)[C@H](CCN)NC(=O)[C@H](CC(C)C)NC(=O)[C@@H](CC(C)C)NC(=O)[C@H](CCN)NC1=O)[C@@H](C)O [colistin], the OD600 is reported as inactive: 0.768.
In the case of CC(O)(CS(=O)(=O)c1ccc(F)cc1)C(=O)Nc1ccc(C#N)c(C(F)(F)F)c1 (stereo unspecified) [Bicalutamide] + CCC(C)CCCC(=O)N[C@@H](CCN)C(=O)N[C@H](C(=O)N[C@@H](CCN)C(=O)N[C@H]1CCNC(=O)[C@H]([C@@H](C)O)NC(=O)[C@H](CCN)NC(=O)[C@H](CCN)NC(=O)[C@H](CC(C)C)NC(=O)[C@@H](CC(C)C)NC(=O)[C@H](CCN)NC1=O)[C@@H](C)O [colistin], the OD600 is reported as inactive: 0.993.
C=C1C[C@@H]2[C@H](CC[C@]3(C)C(=O)CC[C@@H]23)[C@@]2(C)C=CC(=O)C=C12 [Exemestane] + CCC(C)CCCC(=O)N[C@@H](CCN)C(=O)N[C@H](C(=O)N[C@@H](CCN)C(=O)N[C@H]1CCNC(=O)[C@H]([C@@H](C)O)NC(=O)[C@H](CCN)NC(=O)[C@H](CCN)NC(=O)[C@H](CC(C)C)NC(=O)[C@@H](CC(C)C)NC(=O)[C@H](CCN)NC1=O)[C@@H](C)O [colistin] was tested, and the OD600 was inactive: 0.811.
C[N+](C)(C)CCCCCCCCCC[N+](C)(C)C [Decamethonium bromide] + CCC(C)CCCC(=O)N[C@@H](CCN)C(=O)N[C@H](C(=O)N[C@@H](CCN)C(=O)N[C@H]1CCNC(=O)[C@H]([C@@H](C)O)NC(=O)[C@H](CCN)NC(=O)[C@H](CCN)NC(=O)[C@H](CC(C)C)NC(=O)[C@@H](CC(C)C)NC(=O)[C@H](CCN)NC1=O)[C@@H](C)O [colistin] was tested, and the OD600 was inactive: 0.849.
Oc1cc(Cl)ccc1Oc1ccc(Cl)cc1Cl [Triclosan] + CCC(C)CCCC(=O)N[C@@H](CCN)C(=O)N[C@H](C(=O)N[C@@H](CCN)C(=O)N[C@H]1CCNC(=O)[C@H]([C@@H](C)O)NC(=O)[C@H](CCN)NC(=O)[C@H](CCN)NC(=O)[C@H](CC(C)C)NC(=O)[C@@H](CC(C)C)NC(=O)[C@H](CCN)NC1=O)[C@@H](C)O [colistin] was tested, and the OD600 was active: 0.037.
With O=C(O)CCCc1ccc(N(CCCl)CCCl)cc1 [Chlorambucil] + CCC(C)CCCC(=O)N[C@@H](CCN)C(=O)N[C@H](C(=O)N[C@@H](CCN)C(=O)N[C@H]1CCNC(=O)[C@H]([C@@H](C)O)NC(=O)[C@H](CCN)NC(=O)[C@H](CCN)NC(=O)[C@H](CC(C)C)NC(=O)[C@@H](CC(C)C)NC(=O)[C@H](CCN)NC1=O)[C@@H](C)O [colistin] the OD600 was inactive: 0.735.
N[C@@H]1C[C@H]1c1ccccc1 [Tranylcypromine (2-PCPA) hydrochloride] + CCC(C)CCCC(=O)N[C@@H](CCN)C(=O)N[C@H](C(=O)N[C@@H](CCN)C(=O)N[C@H]1CCNC(=O)[C@H]([C@@H](C)O)NC(=O)[C@H](CCN)NC(=O)[C@H](CCN)NC(=O)[C@H](CC(C)C)NC(=O)[C@@H](CC(C)C)NC(=O)[C@H](CCN)NC1=O)[C@@H](C)O [colistin] was tested, and the OD600 was inactive: 0.936.
With COc1cc([C@@H]2c3cc4c(cc3[C@H](O)[C@H]3COC(=O)[C@H]23)OCO4)cc(OC)c1OC [Podofilox] + CCC(C)CCCC(=O)N[C@@H](CCN)C(=O)N[C@H](C(=O)N[C@@H](CCN)C(=O)N[C@H]1CCNC(=O)[C@H]([C@@H](C)O)NC(=O)[C@H](CCN)NC(=O)[C@H](CCN)NC(=O)[C@H](CC(C)C)NC(=O)[C@@H](CC(C)C)NC(=O)[C@H](CCN)NC1=O)[C@@H](C)O [colistin] the OD600 was inactive: 1.14.
